This is an account of results in paper PMC6523062.

By UniProt entry, the sequences of proteins in these tests, tags left out. Where a name states a change or a piece, a line headed by the entry shows the natural chain unless it says otherwise.
UniProt Q38997: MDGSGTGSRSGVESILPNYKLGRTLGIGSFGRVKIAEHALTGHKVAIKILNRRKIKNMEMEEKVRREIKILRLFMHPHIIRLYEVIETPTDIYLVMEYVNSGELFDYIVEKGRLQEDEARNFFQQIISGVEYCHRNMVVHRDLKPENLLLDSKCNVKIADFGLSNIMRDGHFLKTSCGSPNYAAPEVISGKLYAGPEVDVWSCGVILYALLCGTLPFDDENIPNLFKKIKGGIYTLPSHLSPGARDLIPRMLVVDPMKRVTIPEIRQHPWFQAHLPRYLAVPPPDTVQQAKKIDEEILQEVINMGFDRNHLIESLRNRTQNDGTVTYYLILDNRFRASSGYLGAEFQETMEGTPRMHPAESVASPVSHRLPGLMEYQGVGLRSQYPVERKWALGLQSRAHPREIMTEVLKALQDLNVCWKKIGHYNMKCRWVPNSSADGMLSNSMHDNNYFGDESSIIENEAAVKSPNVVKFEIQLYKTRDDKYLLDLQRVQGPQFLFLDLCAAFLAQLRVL

No constants are given. Whether binding was seen depends on the method and setting. In cells and extracts the contact can be indirect. For some assays here: Binding calls can cover weak binding; strength is not graded here. Where a sequence is shown, tags or fusion partners need not be part of it.

Assay [1] addresses cYFP-KIN10 (KIN10 fused to the C-terminal half of YFP) (Arabidopsis) (UniProt Q38997). In words: split reporter; BiFC (split YFP), transient co-expression in Nicotiana benthamiana leaf epidermal cells under a DEX-inducible promoter; leaves treated with DEX and 20 μg/ml antimycin A.
Assay [2] shares this target. Kind of assay: split reporter; BiFC (split YFP), transient co-expression in Nicotiana benthamiana leaf epidermal cells under a DEX-inducible promoter; normal conditions: DEX and DMSO, no antimycin A.

B1: nYFP-SOG1 (SOG1 fused to the N-terminal half of yellow fluorescent protein) (protein, UniProt Q6NQK2 1-449)
chain: MAGRSWLIDSNRIATKIMSASASSDPRQVVWKSNPSRHCPKCQHVIDNSDVVDDWPGLPRGVKFDPSDPEIIWHLLAKSGLSGLSSHPFIDEFIPTVNQDDGICYTHPKNLPGVKSDGTVSHFFHKAIKAYSTGTRKRRKIHDDDFGDVRWHKTGRTKPVVLDGVQRGCKKIMVLYGGKAVKTNWVMHQYHLGIEEDEKEGDYVVSKIFYQQPQQLVVKRGDKAEQEVSEDIFAAVTPTADPVTPKLATPEPRNAVRICSDSHIASDYVTPSDYVSAHEVSLAETSEVMCMEDEVQSIQPNHERPSSGPELEHGLENGAKEMLDDKEEQEKDRDNENQGEEDPTWFDSGSQFILNSQQLVEALSLCDDLLGSQDREENTNSGSLKDKQPCIADYAHLGPEDFKRDLEECQKIVLDPSNIELDTPPEFRLSQLEFGSQDSFLAWGTGKTD
In the case of B1, the binding result in assay [1] was “binds”; in assay [2], “no binding (only without antimycin A (DEX and DMSO))”.
